{"source": "PubChem BioAssay AID720535", "about": "(National Center for Advancing Translational Sciences (NCATS), 2013)", "note": "About 420 (26%) of roughly 1,600 compounds were called active. Inconclusive results, whose numbers are uncertain, are shown with a selection of clear calls. Calls follow the shape of the dose curve; as a rule, active = well fitted inhibition curve with a large enough effect; inconclusive = small, poorly fitted or top-dose-only effect; inactive = flat fitted curve, though single readings scatter. Potencies of inconclusive entries are doubtful fits and often do not repeat. Potency is read from the fitted curve at half-maximal effect.", "data": [{"experiment": "qHTS for Inhibitors of TGF-b: Cytotox Counterscreen for Cherry Picks; also: nearly all actives have a fitted effect of over 70% in size", "conditions": "HepG2 CAGA-GFP viability, ATP luminescence, 18 h, cells stimulated with TGF-beta, 500 pg/mL; activity, negative = cytotoxicity: at 46.1 µM (top of the series)", "from_the_text": "TGF-b is a main component in the TGF-b signaling pathway which plays diverse roles in cellular and development pathways. TGF-b is mediated by transcription factors called \"Smads\". Although the Smad-dependent pathway is the primary canonical TGF-b signaling mode, TGF-b1 can also activate alternative signaling pathways, including those involving MAPK (ERK, JNK and p38). This interaction may mediate or enhance Smad-dependent responses, or can exert Smad-independent effects. The complexity of this signaling cascade allows the TGF-b superfamily to perform unique, overlapping or redundant functions. We believe that targeting the TGF-beta pathway at the Smad-transcription factor level may eliminate the consequences of disrupting the entire pathway and offer specificity without affecting other signaling pathways. Smad3 is the primary transducer of TGF-b's signals and Smad3 regulates many functions attributed to TGF-b signaling. We hypothesize that Smad3 inhibitors will selectively eliminate Smad3-specific TGF-beta signals without undesired off-target effects. We aim to identify Smad3-small molecule antagonists using a quantitative high throughput screening (qHTS) approach. A high-throughput assay was developed to screen the NIH Molecular Libraries Small Molecule Repository (MLSMR). This is a cell based assay, where TGF-b is tagged with GFP. This is a counterscreen that evaluates the cytotoxicity of the compounds that were identified as hits in the primary cell-based screen (AID 588855). MH087449NIH Chemical Genomics Center [NCGC] NIH Molecular Libraries Probe Centers Network [MLPCN] MLPCN Grant: MH087449 Assay Submitter (PI): Sushil Rane, National Institute of Diabetes and Kidney Diseases\nSuspensions of trypsinized HEPG2 CAGA-GFP cells were dispensed into white, tissue culture-treated, solid 1536-well plates at 5uL/well (1000 cells/well final concentration) in DMEM medium supplemented with 1% FBS. Plates were incubated at 37 degrees C for 2 hours, after which 23 nL of compounds or DMSO were delivered to each well using a pin tool. One uL of recombinant TGF-beta in DMEM (1% FBS) was then dispensed (500 pg/mL final concentration), and plates were incubated at 37 degrees C for 18 hours. Two uL of CellTiter Glo (Promega), a luminescence-based viability reagent, was dispensed, followed by a 10 minute room temperature incubation. The plates were then measured on a PerkinElmer ViewLux plate reader for luminescence (clear filter) using a 5 second exposure. The %Activity was determined from the corrected luminescence values. Wells containing media only (no cells) were used to normalize %Activity of identified toxic compounds; media-only wells corresponded to 100%Activity (complete cell-killing), while DMSO-dosed cell controls were used to normalize 0%Activity (no toxicity). Concentration-response curves were fitted to the signals arising from the resulting luminescence. The concentration-effect curves were then classified based on curve quality (r2), response magnitude and degree of measured activity, and compounds were subsequently categorized based on their curve class.", "values": [{"smiles": "FC(F)Oc1ccc(NC(=S)NC23CC4CC(CC(C4)C2)C3)cc1", "Potency": "inconclusive: 29.1 µM [inhibitor, single point]"}, {"smiles": "Oc1ccc(C[C@H]2CNC(=S)N2C[C@H]2CCCN2C[C@H](Cc2ccccc2)N2C[C@H](Cc3ccc(O)cc3)N(CCc3ccccc3)C2=S)cc1", "Potency": "inconclusive: 2.59 µM [inhibitor, full curve]"}, {"smiles": "COc1ccc(-c2cn[nH]c2-c2ccc(OCc3ccc([N+](=O)[O-])cc3)cc2O)cc1OC", "Potency": "inconclusive: 8.2 µM [inhibitor, partial curve]"}, {"smiles": "O=C(NCCc1cccnc1)c1cc(COc2ccc(F)cc2Cl)on1", "Potency": "inactive"}, {"smiles": "CC(C)=CCC/C(C)=C/CNC(=O)C[C@H]1C[C@H](C(=O)N2CCOCC2)[C@@]2(C)c3[nH]c4ccc(Cl)cc4c3CCN2C1=O", "Potency": "inconclusive: 29.1 µM [inhibitor, single point]"}, {"smiles": "CS(=O)(=O)N1CCN(c2ccc(NC(=O)c3ccc([N+](=O)[O-])o3)cc2)CC1", "Potency": "active: 14.6 µM"}, {"smiles": "Clc1ccc2c(NCc3ccccn3)ccnc2c1", "Potency": "inactive"}, {"smiles": "COc1ccc(C)cc1NC(=O)c1ccccc1NS(=O)(=O)c1ccc(Cl)s1", "Potency": "inconclusive: 6.51 µM [inhibitor, partial curve]"}, {"smiles": "COc1ccc(CN2C[C@H]3CCCN3c3cc(Br)ccc3S2(=O)=O)cc1", "Potency": "inactive"}, {"smiles": "Cc1cccc(C)c1NC(=O)CCCSc1nnc(-c2ccc(F)cc2)n1-c1ccccc1", "Potency": "inactive"}, {"smiles": "NC1=NC[C@H](Cc2ccc(O)cc2)N1CCc1cc(C(F)(F)F)cc(C(F)(F)F)c1", "Potency": "inactive"}, {"smiles": "COc1cccc(-c2nc(N3CCCCC3)c3ccccc3n2)c1O", "Potency": "inconclusive: 18.4 µM [inhibitor, single point]"}, {"smiles": "Oc1c(C(c2ccccn2)N2CCCCC2)cc(Cl)c2cccnc12", "note": "(stereo not given)", "Potency": "inconclusive: 1.46 µM [inhibitor, full curve]"}, {"smiles": "CC[C@]12c3[nH]c4ccc(Cl)cc4c3CCN1C(=O)[C@@H](CC(=O)NC/C=C(\\C)CCC=C(C)C)C[C@@H]2C(=O)N1CCN(C(=O)C2CC2)CC1", "Potency": "inconclusive: 20.6 µM [inhibitor, single point]"}, {"smiles": "COc1ccc(Cl)cc1NC(=O)CN1c2ccccc2CC1C", "note": "(stereo not given)", "Potency": "inactive"}, {"smiles": "Cc1cc(C)c(S(=O)(=O)NC2CC3CCC2C3)c(C)c1", "note": "(stereo not given)", "Potency": "inactive"}, {"smiles": "NC(Cc1ccc(F)cc1)c1csc(Nc2ccc(C(F)(F)F)cn2)n1", "note": "(stereo not given)", "Potency": "inconclusive: 29.1 µM [inhibitor, single point]"}, {"smiles": "N#Cc1ccc(NC(=O)Nc2ccc(Oc3ccc(NC(=O)Nc4ccc(C#N)cc4)cc3)cc2)cc1", "Potency": "inconclusive: 14.6 µM [inhibitor, partial curve]"}, {"smiles": "O=C(NCc1ccc2c(c1)OCO2)c1nc(S(=O)(=O)Cc2ccccc2)ncc1Cl", "Potency": "active: 3.66 µM"}, {"smiles": "Cc1cccc(C)c1OCC(=O)Nc1oc(-c2ccccc2)c(-c2ccccc2)c1C#N", "Potency": "inconclusive: 18.4 µM [inhibitor, single point]"}, {"smiles": "O=C(Nc1ccc(F)c(Cl)c1)C1Cc2c(-c3ccc(Cl)cc3)ccnc2O1", "note": "(stereo not given)", "Potency": "inconclusive: 29.1 µM [inhibitor, single point]"}, {"smiles": "Cc1ccc(S(=O)(=O)N(CC(=O)Nc2ccc(Cl)c([N+](=O)[O-])c2)C2CCCCC2)cc1", "Potency": "inactive"}, {"smiles": "O=S1(=O)[C@H]2CC3O[C@]2(C[C@@H]3c2ccc(F)cc2)CN1Cc1ccc(Cl)cc1", "Potency": "inactive"}, {"smiles": "O=S(=O)(c1cccc(NC(=S)N2CCN(c3ccccc3F)CC2)c1)C(F)F", "Potency": "inactive"}, {"smiles": "CC(C)C[C@H]1CN=C(Nc2ccccc2)N1CCc1ccc(F)cc1", "Potency": "inconclusive: 16.4 µM [inhibitor, single point]"}, {"smiles": "O=C1NC(Cc2ccc(O)cc2)c2nc3ccc(Cl)cc3c(=O)n2-c2cc3ccccc3cc21", "note": "(stereo not given)", "Potency": "inconclusive: 18.4 µM [inhibitor, single point]"}, {"smiles": "O=S(=O)(CCOc1ccccc1)c1nc2ccccc2[nH]1", "Potency": "active: 23.1 µM"}, {"smiles": "Cc1nc(N2N=C3/C(=C/c4ccc(F)cc4)CCCC3C2c2ccc(F)cc2)sc1C(=O)N(C)C", "note": "(stereo not given)", "Potency": "inconclusive: 18.4 µM [inhibitor, partial curve]"}, {"smiles": "NC(=S)N/N=C\\c1c(OCc2ccccc2Cl)ccc2ccccc12", "Potency": "inconclusive: 8.2 µM [inhibitor, partial curve]"}, {"smiles": "Oc1c(Cl)cc(CN2CCOCC2)c2cccnc12", "Potency": "inconclusive: 2.31 µM [inhibitor, full curve]"}, {"smiles": "COc1ccc(-c2csc(NC3OC(=O)c4ccccc43)n2)cc1", "note": "(stereo not given)", "Potency": "inconclusive: 23.1 µM [inhibitor, single point]"}, {"smiles": "Cc1ccc2c(c1)nnn2C1CCN(CC(=O)Nc2ccccc2N2CCOCC2)CC1", "Potency": "inconclusive: 14.6 µM [inhibitor, single point]"}, {"smiles": "Cc1c(C(=O)Nc2nonc2-c2ccc(F)cc2)oc2ccc(F)cc12", "Potency": "inconclusive: 4.61 µM [inhibitor, full curve]"}, {"smiles": "COc1cc(NC(=O)c2ccccc2NS(=O)(=O)c2ccc(Cl)s2)cc(OC)c1", "Potency": "active: 8.2 µM"}, {"smiles": "C[C@@H]1CN([C@H](C)CO)C(=O)c2cc(NC(=O)Cc3ccccc3)ccc2O[C@H]1CN(C)Cc1ccc(Oc2ccccc2)cc1", "Potency": "inconclusive: 23.1 µM [inhibitor, single point]"}, {"smiles": "CC(=O)N1CCc2c(sc(NC(=O)c3ccc([N+](=O)[O-])o3)c2C(N)=O)C1", "Potency": "active: 5.8 µM"}, {"smiles": "CC[C@@H](CC1CCCCC1)C(=O)N(Cc1ccccc1)c1ccccc1", "Potency": "inconclusive: 16.4 µM [inhibitor, single point]"}, {"smiles": "Cc1ccc(-c2nc3ccc(Br)cn3c2Cc2ccccc2C(F)(F)F)cc1", "Potency": "inconclusive: 29.1 µM [inhibitor, single point]"}, {"smiles": "CCOc1ccc(N/C(N)=N/c2nc(C)cc(C)n2)cc1", "Potency": "inactive"}, {"smiles": "CCn1c(CCCOc2ccc(Cl)cc2Cl)nnc1SCC(=O)Nc1cc(F)ccc1C", "Potency": "inconclusive: 7.31 µM [inhibitor, partial curve, poor fit]"}, {"smiles": "CCN(CC)S(=O)(=O)c1cccc(NC(=O)CCSc2ccc(Cl)cc2)c1", "Potency": "inconclusive: 29.1 µM [inhibitor, single point]"}, {"smiles": "CC1CN(c2nc3ccccc3nc2SCC(=O)Nc2cccc(C(F)(F)F)c2)CC(C)O1", "note": "(stereo not given)", "Potency": "inconclusive: 20.6 µM [inhibitor, single point]"}, {"smiles": "Nc1cc2[nH]c(=O)c3ccccc3c2cc1[N+](=O)[O-]", "Potency": "inconclusive: 8.2 µM [inhibitor, partial curve]"}, {"smiles": "O=C(CCNc1cccc(F)c1)c1cccc([N+](=O)[O-])c1", "Potency": "inconclusive: 20.6 µM [inhibitor, single point]"}, {"smiles": "CC(C)C[C@H]1CNC(=S)N1C[C@H]1CCCN1C[C@H](Cc1ccc(O)cc1)N1C[C@H](Cc2ccc(O)cc2)N(CCc2ccccc2)C1=S", "Potency": "active: 14.6 µM"}, {"smiles": "NC(=O)[C@H]1CC2(CC(c3cccc(NC(=O)COc4ccc(Cl)cc4)c3)=NO2)CN1C(=O)c1ccc(Cl)cc1", "note": "(stereo not given in full)", "Potency": "inactive"}, {"smiles": "Cc1cc(C)nc(/N=C(\\N)Nc2ccc(OCc3ccccc3)cc2)n1", "Potency": "inconclusive: 1.16 µM [inhibitor, full curve]"}, {"smiles": "COc1cc(C2C3=C(COC3=O)Oc3cc4c(cc32)OCO4)ccc1O", "note": "(stereo not given)", "Potency": "inactive"}, {"smiles": "COc1cc(OC)cc(C(=O)NCCCCCCNC(=O)c2cc(OC)cc(OC)c2)c1", "Potency": "inactive"}, {"smiles": "CN(Cc1cccs1)c1nc(-c2cccnc2)nc2ccccc12", "Potency": "inconclusive: 20.6 µM [inhibitor, single point]"}, {"smiles": "COc1cncc(-c2cnc3sc(NCCc4ccccn4)nn23)c1", "Potency": "inconclusive: 23.1 µM [inhibitor, partial curve]"}, {"smiles": "O=C(NCC1CC1)c1ccc(Nc2nc3ccc(Br)cc3[nH]2)cc1", "Potency": "inconclusive: 29.1 µM [inhibitor, single point]"}, {"smiles": "COc1ccc(NC(=S)N(CCCN2CCCC2)Cc2cccn2Cc2ccc(Cl)cc2)cc1Cl", "Potency": "inconclusive: 29.1 µM [inhibitor, single point]"}, {"smiles": "CC(C)C[C@H]1CNC(=S)N1C[C@H]1CCCN1C[C@H](CC(C)C)N1C[C@H](Cc2ccc(O)cc2)N(CCc2ccccc2)C1=S", "Potency": "active: 20.6 µM"}, {"smiles": "CC(=O)Nc1cccc(-c2cc(NC=O)c3ncc(-c4cccc(C(C)=O)c4)n3c2)c1", "Potency": "inconclusive: 18.4 µM [inhibitor, single point]"}, {"smiles": "C/C(=N\\NC(=O)COc1ccccc1-c1ccccc1)c1ccccn1", "Potency": "inconclusive: 8.2 µM [inhibitor, partial curve]"}, {"smiles": "O=C(Nc1nnc(-c2cccs2)o1)c1cc(-c2ccccc2)nc2ccccc12", "Potency": "inconclusive: 0.651 µM [inhibitor, full curve]"}, {"smiles": "COCc1cc(S(=O)c2ccc(Cl)cc2)nc(C)n1", "note": "(stereo not given)", "Potency": "inconclusive: 18.4 µM [inhibitor, single point]"}, {"smiles": "CCOc1ccc(S(=O)(=O)N2CCN(C(=S)NCc3ccco3)CC2)cc1", "Potency": "inactive"}, {"smiles": "O=S(=O)(Nc1cccc2cccnc12)c1ccccc1", "activity, negative = cytotoxicity": "inconclusive: -26% [inhibitor]"}, {"smiles": "COc1cc(NC(=O)N2CCc3nc(Nc4cc(Cl)cc(Cl)c4)ncc3C2)cc(OC)c1OC", "Potency": "inconclusive: 20.6 µM [inhibitor, single point]"}, {"smiles": "CC(=NNC(=S)N1CCCC1)c1ccccn1", "Potency": "inconclusive: 0.0206 µM [inhibitor, full curve, poor fit]"}, {"smiles": "CCCCCCOc1ccc(N2C(=O)CC(N(CCc3ccc(S(N)(=O)=O)cc3)C(C)=O)C2=O)cc1", "note": "(stereo not given)", "Potency": "inactive"}, {"smiles": "Cc1ccc2nc(SCC(=O)Nc3cc(C(F)(F)F)ccc3N3CCOCC3)[nH]c2c1", "Potency": "inactive"}, {"smiles": "Oc1ccc(C[C@H]2CNC(=S)N2CC2CCCN2C[C@H](Cc2ccccc2)N2C[C@H](Cc3ccc(O)cc3)N(CC3CCCCCC3)C2=S)cc1", "note": "(stereo not given in full)", "Potency": "inconclusive: 23.1 µM [inhibitor, single point]"}]}]}
